# Reference: publication PMC3305447, “A Peptidoglycan Fragment Triggers β-lactam Resistance in Bacillus licheniformis” (PLoS Pathogens, 2012)
# Construct, isoform or probe ends are uncertain for at least one entry. The comparison behind a weaker result is the experiment's own reference, which may not be listed here. Protein sequences can lack the tags named with them.
# Target: T1, BlaI (Bacillus licheniformis) (UniProt P06555)
# T1 sequence (looked up): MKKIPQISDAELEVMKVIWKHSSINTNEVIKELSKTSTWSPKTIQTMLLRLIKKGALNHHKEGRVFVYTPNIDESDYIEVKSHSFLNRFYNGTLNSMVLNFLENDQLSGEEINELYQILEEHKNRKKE
# Assay: EMSA
# Conditions: 0.5 uM Cy5-OP1 + 13.5 uM repressor (ALF sequencer) or 2.5 uM DNA + 50 uM repressor (1% agarose), recombinant protein, residues 1-128, label: 5'-Cy5 on printed strand
sequence,measurement,setting,value
GCATTTAAATCTTACATATGTAATACTTTC (double strand) [OP1 operator],binding result,fraction F5 (300-600 Da) of induced extract,binds more weakly
same,binding result,gamma-D-Glu-L-Lys (dipeptide 2),binds more weakly
same,binding result,gamma-D-Glu-m-A2pm (dipeptide 1),binds more weakly
same,binding signal (bound OP/total OP),"induced BS995 cell extract, <=10 kDa ultrafiltrate",0.32
